These are yes or no findings as the source states them, for the method shown. Binding seen in cells or lysates may run through a third protein. Some binding calls cover weakened binding; strength is not graded here.

The chains behind the UniProt entries cited, without tags or fusion partners.
UniProt Q14974: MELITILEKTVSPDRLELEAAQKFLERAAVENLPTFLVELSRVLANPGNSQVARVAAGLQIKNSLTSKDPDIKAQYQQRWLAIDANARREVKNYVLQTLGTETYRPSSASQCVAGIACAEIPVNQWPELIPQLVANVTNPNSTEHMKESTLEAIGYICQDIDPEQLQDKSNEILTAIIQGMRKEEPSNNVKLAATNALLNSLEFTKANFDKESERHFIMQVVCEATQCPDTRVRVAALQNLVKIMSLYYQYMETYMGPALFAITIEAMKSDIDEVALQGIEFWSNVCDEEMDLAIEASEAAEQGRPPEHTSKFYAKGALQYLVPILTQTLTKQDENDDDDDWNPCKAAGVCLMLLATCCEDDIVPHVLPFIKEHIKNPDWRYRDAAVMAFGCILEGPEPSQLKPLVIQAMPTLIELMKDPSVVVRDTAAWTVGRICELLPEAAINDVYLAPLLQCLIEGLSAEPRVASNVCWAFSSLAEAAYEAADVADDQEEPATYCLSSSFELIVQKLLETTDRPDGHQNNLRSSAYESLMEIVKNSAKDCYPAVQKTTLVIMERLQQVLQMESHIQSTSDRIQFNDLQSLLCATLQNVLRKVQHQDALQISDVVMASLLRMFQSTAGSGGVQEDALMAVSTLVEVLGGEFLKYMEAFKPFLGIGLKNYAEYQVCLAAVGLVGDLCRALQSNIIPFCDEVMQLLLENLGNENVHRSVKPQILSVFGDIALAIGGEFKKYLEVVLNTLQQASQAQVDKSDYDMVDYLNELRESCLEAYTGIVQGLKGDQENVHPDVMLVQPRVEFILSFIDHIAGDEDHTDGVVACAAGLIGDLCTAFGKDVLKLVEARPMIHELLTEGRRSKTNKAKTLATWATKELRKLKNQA
UniProt Q96SW2: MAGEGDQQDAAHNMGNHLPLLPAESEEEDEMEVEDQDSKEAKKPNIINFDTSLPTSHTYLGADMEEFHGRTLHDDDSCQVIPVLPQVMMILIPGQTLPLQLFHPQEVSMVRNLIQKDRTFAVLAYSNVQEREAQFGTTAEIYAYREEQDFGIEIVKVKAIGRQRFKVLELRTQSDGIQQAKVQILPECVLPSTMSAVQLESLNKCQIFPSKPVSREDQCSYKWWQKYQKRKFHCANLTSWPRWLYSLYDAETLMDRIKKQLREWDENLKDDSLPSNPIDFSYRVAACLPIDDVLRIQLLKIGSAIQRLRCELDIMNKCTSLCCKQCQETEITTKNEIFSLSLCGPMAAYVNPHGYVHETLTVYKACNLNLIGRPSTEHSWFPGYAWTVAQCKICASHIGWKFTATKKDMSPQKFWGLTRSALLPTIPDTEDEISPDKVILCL
UniProt Q13619: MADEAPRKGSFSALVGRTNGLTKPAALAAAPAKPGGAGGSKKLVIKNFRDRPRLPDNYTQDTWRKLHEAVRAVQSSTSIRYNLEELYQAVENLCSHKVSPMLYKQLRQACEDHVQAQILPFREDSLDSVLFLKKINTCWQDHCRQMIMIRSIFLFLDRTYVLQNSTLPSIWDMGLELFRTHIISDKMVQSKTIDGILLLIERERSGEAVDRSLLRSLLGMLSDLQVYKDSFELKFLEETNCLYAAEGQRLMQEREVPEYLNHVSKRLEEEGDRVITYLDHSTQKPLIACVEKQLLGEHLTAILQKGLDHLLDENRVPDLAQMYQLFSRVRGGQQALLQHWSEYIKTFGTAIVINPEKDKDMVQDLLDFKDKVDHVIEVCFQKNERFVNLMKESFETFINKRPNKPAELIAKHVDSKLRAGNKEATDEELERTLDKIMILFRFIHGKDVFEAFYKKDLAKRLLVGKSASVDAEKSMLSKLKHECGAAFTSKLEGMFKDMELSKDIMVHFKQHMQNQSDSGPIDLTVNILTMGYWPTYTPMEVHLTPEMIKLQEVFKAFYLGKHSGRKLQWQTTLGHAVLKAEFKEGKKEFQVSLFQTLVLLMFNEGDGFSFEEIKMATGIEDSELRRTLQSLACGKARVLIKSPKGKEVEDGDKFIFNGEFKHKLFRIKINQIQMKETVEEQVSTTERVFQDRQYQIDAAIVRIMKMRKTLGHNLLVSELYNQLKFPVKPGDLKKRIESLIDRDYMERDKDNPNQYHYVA

This is an account of results in paper PMC7055313.

For this assay, the target named is GST-tagged karyopherin beta 1 (KPNB1) (UniProt Q14974). Nature of the assay: pull-down; Control GST or GST-KPNB1 coupled to glutathione beads, incubated with lysates of High Five insect cells overproducing individual CRL4^CRBN subunits; input (10%) and bound proteins analysed by immunoblot; only the target purified. On the technique in general: A western blot detects proteins with antibodies after separation by electrophoresis.

In the case of “CRBN overproduced in High Five insect cells (from UniProt Q96SW2 1-442)”, the binding entry is on record as “binds”.

On to “CUL4A overproduced in High Five insect cells (from UniProt Q13619 1-759)”, for which the binding entry was “binds”.
